Assay results published in PMC8855811.
These are yes or no findings as the source states them, for the method shown. In cells and extracts the contact can be indirect. Some entries that bind do so weakly or less than the wild type.

Protein sequences, listed by entry. Tags and fused reporters are not part of them.
UniProt Q5SF07: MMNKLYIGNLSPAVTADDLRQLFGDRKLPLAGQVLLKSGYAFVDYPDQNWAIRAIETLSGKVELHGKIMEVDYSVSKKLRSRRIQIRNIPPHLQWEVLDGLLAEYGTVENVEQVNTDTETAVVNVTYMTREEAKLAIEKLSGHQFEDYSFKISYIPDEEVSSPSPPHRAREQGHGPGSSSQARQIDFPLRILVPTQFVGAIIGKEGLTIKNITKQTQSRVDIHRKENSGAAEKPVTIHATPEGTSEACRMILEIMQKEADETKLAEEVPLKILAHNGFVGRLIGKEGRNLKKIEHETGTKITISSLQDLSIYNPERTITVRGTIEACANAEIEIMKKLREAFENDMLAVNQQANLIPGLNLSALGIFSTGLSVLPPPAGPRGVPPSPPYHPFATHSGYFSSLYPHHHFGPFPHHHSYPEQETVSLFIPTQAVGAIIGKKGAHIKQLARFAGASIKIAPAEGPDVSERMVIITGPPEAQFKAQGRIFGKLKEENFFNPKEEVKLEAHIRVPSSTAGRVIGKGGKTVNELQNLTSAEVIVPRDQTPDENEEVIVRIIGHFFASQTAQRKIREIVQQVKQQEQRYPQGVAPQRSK
UniProt P70372: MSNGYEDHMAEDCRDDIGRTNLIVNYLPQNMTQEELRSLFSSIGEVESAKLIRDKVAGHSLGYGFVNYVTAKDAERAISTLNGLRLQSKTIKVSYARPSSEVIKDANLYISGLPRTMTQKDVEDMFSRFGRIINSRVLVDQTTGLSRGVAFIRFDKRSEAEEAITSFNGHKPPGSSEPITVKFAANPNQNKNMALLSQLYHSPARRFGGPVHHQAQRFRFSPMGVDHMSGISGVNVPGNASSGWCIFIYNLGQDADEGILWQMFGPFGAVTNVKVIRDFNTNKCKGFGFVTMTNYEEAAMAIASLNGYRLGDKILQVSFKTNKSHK

Target: IGF-2 mRNA-binding protein 2 (mouse (endogenous in MEFs)) (UniProt Q5SF07)
Test: co-IP; MEF lysates, with or without RNase A treatment, immunoprecipitated with anti-IMP2 Abs; HuR detected in the precipitate

binding: binds
Substance: Hu-antigen R (from UniProt P70372 1-326)
